Source: patent US5990170A, “Therapeutic use of mono and bicarboxylic acid amides active at the peripheral cannabinoid receptor” (Lifegroup S.p.A., priority 1994, dated 1999)
At least one compound was matched to its structure with a doubt left.

Tested on: RBL-2H3 cells
Assay: Inhibition of 3H-serotonin release induced by ADNP/DNP-HSA immunogenic stimulation in RBL-2H3 cells
Assay type: cell-based, rat
Conditions: result in words

CCCCCC/C=C\CCCCCCCC(=O)NCCO [Example 19, N-(2-hydroxyethyl)-palmitoleylamide]
antagonism of the protective effects of cannabinoids: functionally antagonizes the protective effects of cannabinoids
